Experimental data: patent publication US20210147817

Molecular target: 36H polymerase (Pyrococcus sp.) (UniProt P61875)
Experiment: activity assay
Details: PCR; no product at 200 uM added dUTP; purified recombinant protein

GAAGAGCCAAGGACAGGTAC / CCTCCAAATCAAGCCTCTAC [2 kb human genomic DNA amplicon, primer pair]
activity on this sequence: active

Construct, isoform or probe ends are uncertain for at least one entry.
